This passage reports binding results from article PMC8304497.

By UniProt entry, the sequences of proteins in these tests, tags left out.
UniProt P11798: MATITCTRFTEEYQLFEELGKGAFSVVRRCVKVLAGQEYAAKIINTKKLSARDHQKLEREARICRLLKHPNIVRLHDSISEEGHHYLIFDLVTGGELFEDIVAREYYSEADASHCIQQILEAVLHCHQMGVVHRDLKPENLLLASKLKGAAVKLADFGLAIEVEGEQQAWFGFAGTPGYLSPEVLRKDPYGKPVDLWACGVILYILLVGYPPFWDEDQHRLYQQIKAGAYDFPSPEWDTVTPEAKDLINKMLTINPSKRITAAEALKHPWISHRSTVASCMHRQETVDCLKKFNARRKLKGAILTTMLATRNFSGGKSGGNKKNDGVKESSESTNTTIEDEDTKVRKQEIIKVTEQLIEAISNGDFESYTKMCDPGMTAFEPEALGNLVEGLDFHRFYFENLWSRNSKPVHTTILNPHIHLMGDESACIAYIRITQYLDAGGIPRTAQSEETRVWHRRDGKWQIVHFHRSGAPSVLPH
UniProt P20357: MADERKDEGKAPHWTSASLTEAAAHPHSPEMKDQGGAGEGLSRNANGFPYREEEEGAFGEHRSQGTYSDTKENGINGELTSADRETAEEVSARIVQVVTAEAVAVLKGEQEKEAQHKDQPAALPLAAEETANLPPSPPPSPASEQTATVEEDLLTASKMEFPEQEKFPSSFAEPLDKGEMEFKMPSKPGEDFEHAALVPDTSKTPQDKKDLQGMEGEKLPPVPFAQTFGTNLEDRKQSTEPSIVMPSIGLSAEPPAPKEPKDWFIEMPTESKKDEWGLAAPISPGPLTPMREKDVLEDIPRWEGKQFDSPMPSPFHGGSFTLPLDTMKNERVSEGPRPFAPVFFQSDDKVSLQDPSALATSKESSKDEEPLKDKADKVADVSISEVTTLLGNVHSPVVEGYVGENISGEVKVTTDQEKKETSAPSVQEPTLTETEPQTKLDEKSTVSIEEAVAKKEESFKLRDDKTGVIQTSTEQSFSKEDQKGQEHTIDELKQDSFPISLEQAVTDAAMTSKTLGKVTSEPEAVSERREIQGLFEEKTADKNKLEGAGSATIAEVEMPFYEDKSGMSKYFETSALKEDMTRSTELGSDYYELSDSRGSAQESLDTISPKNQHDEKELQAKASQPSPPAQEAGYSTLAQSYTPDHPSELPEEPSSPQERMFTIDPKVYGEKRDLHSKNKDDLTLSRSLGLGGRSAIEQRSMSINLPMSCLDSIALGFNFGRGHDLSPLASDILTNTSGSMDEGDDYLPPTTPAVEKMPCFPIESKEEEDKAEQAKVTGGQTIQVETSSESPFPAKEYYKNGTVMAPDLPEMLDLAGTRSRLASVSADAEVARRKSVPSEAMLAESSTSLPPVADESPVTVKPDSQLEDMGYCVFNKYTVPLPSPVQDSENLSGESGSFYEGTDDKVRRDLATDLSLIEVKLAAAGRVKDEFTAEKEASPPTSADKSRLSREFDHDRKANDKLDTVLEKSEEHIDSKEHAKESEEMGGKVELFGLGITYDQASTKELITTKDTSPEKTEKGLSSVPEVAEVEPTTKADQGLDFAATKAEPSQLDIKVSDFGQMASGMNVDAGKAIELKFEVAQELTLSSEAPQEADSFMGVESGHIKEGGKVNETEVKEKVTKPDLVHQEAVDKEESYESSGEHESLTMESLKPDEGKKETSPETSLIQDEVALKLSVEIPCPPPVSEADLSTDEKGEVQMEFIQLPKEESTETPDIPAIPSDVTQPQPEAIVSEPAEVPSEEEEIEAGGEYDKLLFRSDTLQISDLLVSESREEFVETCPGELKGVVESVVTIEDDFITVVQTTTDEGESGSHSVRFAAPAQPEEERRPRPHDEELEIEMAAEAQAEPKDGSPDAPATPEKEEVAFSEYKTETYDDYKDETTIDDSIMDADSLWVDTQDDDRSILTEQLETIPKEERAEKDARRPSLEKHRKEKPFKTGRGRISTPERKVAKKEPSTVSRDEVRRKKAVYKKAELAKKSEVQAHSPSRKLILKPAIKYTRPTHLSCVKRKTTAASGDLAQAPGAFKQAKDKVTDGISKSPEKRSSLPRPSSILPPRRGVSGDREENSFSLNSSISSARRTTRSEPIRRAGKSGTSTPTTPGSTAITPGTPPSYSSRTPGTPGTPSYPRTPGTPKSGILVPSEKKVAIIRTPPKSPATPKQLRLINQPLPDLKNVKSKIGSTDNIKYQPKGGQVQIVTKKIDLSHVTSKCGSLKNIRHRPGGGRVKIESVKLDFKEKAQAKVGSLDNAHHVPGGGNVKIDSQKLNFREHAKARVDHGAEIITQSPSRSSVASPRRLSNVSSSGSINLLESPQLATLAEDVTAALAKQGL

What all share (experiment): co-IP; membrane fraction of P10–15 mouse cortex and hippocampus incubated with 2 μg antibody overnight, protein G-Sepharose 2 h, washed with lysis buffer, Western blot
In assay [1] the target is T1, Neuronal cell adhesion molecule 2, isoform NCAM2.1 (mouse (endogenous in cerebral cortex)) (UniProt O35136).
T1 sequence: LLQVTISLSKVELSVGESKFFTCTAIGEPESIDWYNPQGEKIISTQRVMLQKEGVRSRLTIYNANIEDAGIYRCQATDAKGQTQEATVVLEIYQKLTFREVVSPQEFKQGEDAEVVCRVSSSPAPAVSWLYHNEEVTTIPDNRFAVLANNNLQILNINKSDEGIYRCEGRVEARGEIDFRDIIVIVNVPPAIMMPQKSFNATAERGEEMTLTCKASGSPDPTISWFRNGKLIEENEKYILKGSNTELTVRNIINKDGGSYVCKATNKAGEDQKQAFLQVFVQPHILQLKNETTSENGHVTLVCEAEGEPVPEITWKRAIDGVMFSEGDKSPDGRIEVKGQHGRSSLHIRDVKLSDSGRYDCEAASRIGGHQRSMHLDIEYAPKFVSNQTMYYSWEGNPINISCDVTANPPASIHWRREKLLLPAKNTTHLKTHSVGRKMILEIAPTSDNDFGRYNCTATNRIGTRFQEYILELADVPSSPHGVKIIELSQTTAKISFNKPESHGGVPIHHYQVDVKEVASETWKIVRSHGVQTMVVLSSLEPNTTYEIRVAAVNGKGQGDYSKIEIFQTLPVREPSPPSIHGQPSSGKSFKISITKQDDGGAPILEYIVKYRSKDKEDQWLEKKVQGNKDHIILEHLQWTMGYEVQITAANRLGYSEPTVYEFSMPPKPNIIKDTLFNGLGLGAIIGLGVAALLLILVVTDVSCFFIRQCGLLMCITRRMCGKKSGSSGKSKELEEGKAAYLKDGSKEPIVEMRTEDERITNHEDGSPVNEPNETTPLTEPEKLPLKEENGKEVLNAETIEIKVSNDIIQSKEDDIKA

The target in assay [2] is Calcium/calmodulin-dependent protein kinase type II alpha (mouse (endogenous in cerebral cortex)) (UniProt P11798).
Assay [3] addresses Microtubule-associated protein 2 (mouse (endogenous in cerebral cortex)) (UniProt P20357).
For assay [4], the target named is T2, NF200 (mouse (endogenous in cortex and hippocampus)) (UniProt P19246).
T2 sequence: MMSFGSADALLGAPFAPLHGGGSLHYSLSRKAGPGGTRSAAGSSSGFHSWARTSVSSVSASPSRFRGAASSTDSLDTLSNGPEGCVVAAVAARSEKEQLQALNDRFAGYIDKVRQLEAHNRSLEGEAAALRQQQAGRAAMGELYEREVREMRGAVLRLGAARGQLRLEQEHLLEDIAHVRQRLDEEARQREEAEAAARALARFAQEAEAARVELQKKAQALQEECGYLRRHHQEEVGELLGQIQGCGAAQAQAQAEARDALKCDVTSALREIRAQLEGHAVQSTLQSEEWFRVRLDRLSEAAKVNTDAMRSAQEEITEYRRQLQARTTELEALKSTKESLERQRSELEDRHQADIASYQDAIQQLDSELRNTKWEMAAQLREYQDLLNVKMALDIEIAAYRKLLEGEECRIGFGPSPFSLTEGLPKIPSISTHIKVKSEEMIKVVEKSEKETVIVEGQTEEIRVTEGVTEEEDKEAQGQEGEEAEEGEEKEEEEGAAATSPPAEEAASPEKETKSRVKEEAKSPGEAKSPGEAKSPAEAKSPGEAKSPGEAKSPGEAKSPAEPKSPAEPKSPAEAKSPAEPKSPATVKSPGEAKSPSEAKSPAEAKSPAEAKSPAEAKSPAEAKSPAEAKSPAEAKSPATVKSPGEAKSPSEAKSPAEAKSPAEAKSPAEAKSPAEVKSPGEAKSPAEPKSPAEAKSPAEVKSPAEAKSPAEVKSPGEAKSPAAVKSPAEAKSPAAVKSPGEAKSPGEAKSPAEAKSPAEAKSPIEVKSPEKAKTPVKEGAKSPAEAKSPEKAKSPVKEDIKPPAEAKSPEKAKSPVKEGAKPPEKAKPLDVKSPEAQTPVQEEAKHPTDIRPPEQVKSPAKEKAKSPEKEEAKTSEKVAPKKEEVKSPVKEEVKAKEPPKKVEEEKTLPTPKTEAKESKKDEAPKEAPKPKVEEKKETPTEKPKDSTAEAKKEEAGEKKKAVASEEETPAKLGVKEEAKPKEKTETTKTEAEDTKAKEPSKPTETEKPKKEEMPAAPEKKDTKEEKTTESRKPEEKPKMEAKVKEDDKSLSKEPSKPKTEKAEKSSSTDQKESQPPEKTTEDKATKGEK

Assay [5] concerns the target T3, Reticulon-4 (mouse (endogenous in cerebral cortex)) (UniProt Q99P72).
T3 sequence: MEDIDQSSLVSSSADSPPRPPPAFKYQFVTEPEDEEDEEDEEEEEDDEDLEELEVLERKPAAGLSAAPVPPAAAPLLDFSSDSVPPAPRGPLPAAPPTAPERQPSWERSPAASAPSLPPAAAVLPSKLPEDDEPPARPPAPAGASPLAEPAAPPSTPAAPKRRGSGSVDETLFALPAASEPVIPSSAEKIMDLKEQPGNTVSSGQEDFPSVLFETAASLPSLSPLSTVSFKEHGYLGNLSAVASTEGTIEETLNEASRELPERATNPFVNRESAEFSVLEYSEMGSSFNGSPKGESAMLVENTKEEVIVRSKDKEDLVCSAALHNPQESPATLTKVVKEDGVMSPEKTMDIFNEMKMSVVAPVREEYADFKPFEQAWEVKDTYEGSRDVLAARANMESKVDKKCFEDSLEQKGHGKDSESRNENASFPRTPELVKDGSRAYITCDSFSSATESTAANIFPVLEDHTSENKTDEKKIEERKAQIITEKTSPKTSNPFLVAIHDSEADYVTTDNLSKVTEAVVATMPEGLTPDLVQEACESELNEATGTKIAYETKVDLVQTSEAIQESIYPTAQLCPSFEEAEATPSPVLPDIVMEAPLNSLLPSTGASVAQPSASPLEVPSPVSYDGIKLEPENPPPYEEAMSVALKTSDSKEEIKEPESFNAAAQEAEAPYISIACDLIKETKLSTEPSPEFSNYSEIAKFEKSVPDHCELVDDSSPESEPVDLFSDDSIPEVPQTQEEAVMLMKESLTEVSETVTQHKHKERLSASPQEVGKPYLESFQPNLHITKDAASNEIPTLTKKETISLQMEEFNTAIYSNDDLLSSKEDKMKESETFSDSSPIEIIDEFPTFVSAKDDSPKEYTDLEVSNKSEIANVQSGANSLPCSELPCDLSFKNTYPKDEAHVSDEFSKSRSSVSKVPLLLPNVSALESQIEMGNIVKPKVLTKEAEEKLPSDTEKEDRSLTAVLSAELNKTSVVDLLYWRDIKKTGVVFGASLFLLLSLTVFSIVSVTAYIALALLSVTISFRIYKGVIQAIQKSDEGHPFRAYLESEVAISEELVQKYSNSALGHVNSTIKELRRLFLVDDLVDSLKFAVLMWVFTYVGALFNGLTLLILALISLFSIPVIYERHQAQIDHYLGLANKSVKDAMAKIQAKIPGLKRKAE

Results are given in words; binding and its absence hold for the method and conditions named. Binding seen in cells or lysates may run through a third protein. Some results given as binding are weak or reduced against the parent protein; the word gives no strength.

“Microtubule-associated protein 2 (from UniProt P20357 1-1828)”: in assay [1], the binding entry is “binds”.

B1: Neuronal cell adhesion molecule 2, isoform NCAM2.1 (protein, UniProt O35136 20-837)
chain: T1 sequence
Regarding B1, the binding result in assay [2], in assay [3], in assay [4] and in assay [5] was “binds” each time.
